Values from PubChem BioAssay AID686937 (Drosophila RNAi Screening Center, 2013).
Purpose: 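Knock-downs that reduce output of a secreted reporter enzyme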 (primary screen). Cells: Drosophila S2 cells expressing secreted horseradish peroxidase. Knock-down reagent: long dsRNA against Drosophila genes. Timing: about 5.5 days (5 days dsRNA, then 12 h reporter induction). Treatment: reporter expression induced after 5 days of dsRNA, read 12 h later; inducer not stated. Detection: 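Chemiluminescent measurement of peroxidase in the medium 12 h after reporter induction, following 5 days of dsRNA, given as a z-score per plate; higher means more secretion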. Direction: z-score: higher = more reporter secreted into medium.
The deposit covers about 23,000 reagents; this is a random part of those that have a named target and a result. 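Reduced-secretion tags in replicate 1 do not always agree with the z-scores; no criterion for assigning the tags was given.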 The numbers tell different reagents against one gene apart. Names joined by + are all predicted targets of the reagent. Further read-outs or replicates are left out here. Not stated in the record: the amount of reagent.

| Gene | dsRNA no. | z-score, replicate 1 | z-score, replicate 2 | z-score, replicate 3 | z-score, replicate 4 |
| --- | --- | --- | --- | --- | --- |
| Cox11 | 1 | 0.49 | 0.2 | – | – |
| Toll-9 | 1 | 0.48 | 0.43 | – | – |
| CG14105 | 1 | 0.23 | -0.03 | – | – |
| fan | 1 | 0.29 | 0.32 | – | – |
| JhI-26 | 1 | 0.16 | 0.31 | – | – |
| Cpr65Aw | 1 | -1.01 | -0.94 | – | – |
| CG8117 | 1 | 0.47 | 0.48 | – | – |
| LManIII | 1 | 0.35 | 0.26 | – | – |
| Tcs5 | 1 | 0.24 | 0.38 | – | – |
| CG5276 | 1 | -0.2 | 0 | – | – |
| CG13557 | 1 | -0.01 | 0.33 | – | – |
| CG3199 | 1 | 0.22 | 0.33 | – | – |
| CG9825 | 1 | 0.42 | 0.3 | – | – |
| Unc-76 | 1 | 0.2 | 0.33 | – | – |
| Unc-76 | 2 | 0.37 | 0.32 | – | – |
| hth | 1 | 0.16 | 0.2 | – | – |
| CG9578 | 1 | 0.27 | 0.41 | – | – |
| CG32834 | 1 | 0.15 | -0.06 | – | – |
| Dscam2 | 1 | 0.6 | -0.12 | 0.39 | 0.12 |
| Dscam2 | 2 | 0.33 | 0.32 | – | – |
| Dscam2 | 3 | -2.46 | -3.32 | – | – |
| Dscam2 | 4 | -0.44 | -0.46 | – | – |
| Dscam2 | 5 | 0.29 | 0.46 | – | – |
| Dscam2 | 6 | -0.71 | 0.46 | – | – |
| dwg | 1 | 0.41 | 0.16 | – | – |
| CG32447 | 1 | 0.32 | 0.25 | – | – |
| CG32447 | 2 | -0.49 | -0.47 | – | – |
| DCTN3-p24 | 1 | -0.06 | 0.16 | – | – |
| CG1137 | 1 | 0.1 | 0.04 | – | – |
| Cog4 | 1 | -1.47 | -0.64 | – | – |
| CG31538 | 1 | 0.31 | 0.31 | – | – |
| CR32821 + CR43381 + CR43377 + 1 more | 1 | -0.45 | -0.46 | – | – |
| CG14929 + CG14930 | 1 | 0.25 | 0.23 | – | – |
| CG13048 | 1 | 0.09 | 0.03 | – | – |

10 entries already listed, sorted by “z-score, replicate 2”, high to low.
| Gene | dsRNA no. | z-score, replicate 1 | z-score, replicate 2 | z-score, replicate 3 | z-score, replicate 4 |
| --- | --- | --- | --- | --- | --- |
| Dscam2 | 5 | 0.29 | 0.46 | – | – |
| Dscam2 | 6 | -0.71 | 0.46 | – | – |
| Dscam2 | 2 | 0.33 | 0.32 | – | – |
| CG32447 | 1 | 0.32 | 0.25 | – | – |
| dwg | 1 | 0.41 | 0.16 | – | – |
| DCTN3-p24 | 1 | -0.06 | 0.16 | – | – |
| CG1137 | 1 | 0.1 | 0.04 | – | – |
| Dscam2 | 4 | -0.44 | -0.46 | – | – |
| CG32447 | 2 | -0.49 | -0.47 | – | – |
| Dscam2 | 3 | -2.46 | -3.32 | – | – |

Next records:
| Gene | dsRNA no. | z-score, replicate 1 | z-score, replicate 2 | z-score, replicate 3 | z-score, replicate 4 |
| --- | --- | --- | --- | --- | --- |
| dgt3 | 1 | 0.2 | 0.14 | – | – |
| ball | 1 | 0.29 | -0.64 | – | – |
| CG10348 | 1 | 0.34 | 0.31 | – | – |
| CG10348 | 2 | 0.93 | 1.13 | – | – |
| CG15332 | 1 | 0.29 | 0.46 | – | – |
| Osi18 | 1 | 0.36 | 0.33 | – | – |
| BORCS6 | 1 | 0.29 | 0.26 | – | – |
| CG17726 | 1 | 0.57 | 0.27 | – | – |
| noi | 1 | -3.83 | -1.81 | – | – |
| TotB | 1 | 0.32 | 0.33 | – | – |
| Ugt304A1 | 1 | 0.35 | 0.28 | – | – |
| CG6310 | 1 | 0.29 | 0.19 | – | – |
| CG13559 | 1 | 0.06 | -0.05 | – | – |
| OtopLa | 1 | -3.71 | 0.56 | 0.47 | -2.56 |
| OtopLa | 2 | 0.41 | 0.53 | – | – |
| CR18228 | 1 | 0.48 | 0.52 | – | – |
| Dyrk2 | 1 | 0.15 | 0.1 | – | – |
| Hsp70Bb + Hsp70Bbb | 1 | 0.32 | 0.39 | -0.4 | -0.32 |
| CG43795 + SkpF | 1 | 0.12 | -0.1 | – | – |
| ear | 1 | -0.85 | -0.68 | – | – |
| CG8298 | 1 | 0.38 | 0.54 | – | – |
| CG31337 | 1 | -0.31 | 0.23 | – | – |
| Nepl3 | 1 | 0.21 | -0.05 | – | – |
| CG30050 | 1 | -0.75 | 0.21 | – | – |
| CG14126 (retired record) | 1 | 0.19 | 0.3 | – | – |
| alc | 1 | 0.09 | 0.23 | – | – |
| alc | 2 | 1.38 | 0.79 | – | – |
| Fbxl4 | 1 | -0.03 | 0.18 | – | – |
| PHDP | 1 | 0.43 | 0.29 | – | – |
| CG43740 | 1 | -0.01 | -0.67 | – | – |
| CG43740 | 2 | 0.48 | 0.46 | – | – |
| dare + CG30033 | 1 | 0.31 | -0.31 | – | – |
| CG5938 | 1 | 0.62 | 0.63 | – | – |
| CG32755 | 1 | 0.29 | 0.34 | – | – |
| Trim9 | 1 | 0.23 | 0.2 | – | – |
| CG14015 | 1 | 0.36 | 0.32 | – | – |
| Npc2f | 1 | 0.35 | 0.21 | – | – |
| EAChm | 1 | -0.01 | 0.13 | – | – |
| ASPP | 1 | -2.1 | -0.75 | – | – |
| Eip93F | 1 | 0.46 | 0.67 | – | – |
| Eip93F | 2 | -0.24 | 0.31 | – | – |
| Eip93F | 3 | -0.55 | 0.22 | – | – |
| ND-24 | 1 | 0.08 | 0.07 | – | – |
| Lsm10 | 1 | 0.1 | -0.22 | – | – |
| COX7AL2 | 1 | 0.33 | 0.37 | – | – |
| kibra | 1 | 0.49 | 0.81 | – | – |
| kibra | 2 | -3.97 | -3.85 | – | – |
| CG14331 | 1 | 0.01 | -0.02 | – | – |
